Experiment: Mutant probe screening: baseline fluorescence ratio Ro and fatty acid response phenotype
Assay type: binding
Details: fluorescence ratio for zero FFAu concentration
Protocol: The intensity ratio (“R” value) for a given probe is determined. The ratio is calculated using the following formula: R=Fλ1/Fλ2 wherein, Fλ1, is the measured fluorescence intensities (intensity of sample with probe present minus intensity of sample without probe present) at wavelength 1 and Fλ2 is the measured fluorescence intensities (intensity of sample with probe present minus intensity of sample without probe present) at wavelength 2. Then, for a given probe, ΔR, the difference in R value between the measurement in the presence of the analyte and in the absence of the analyte, is calculated as follows: ΔR=R+analyte−R0 The ΔR value for a given probe is then compared to a reference probe, for example, ADIFAB or ADIFAB2, by ΔR/ΔRreference. This value is an indication of how dissimilar the new probe (derived by mutation of the template) is to the reference. By this method, probes with new and useful characteristics may be identified. Measurements of fluorescence intensities are obtained using standard techniques.
Plates were prepared and read in two stages. First, complexes and fatty acid free BSA were diluted to 6 μM BSA in HEPES and added to the 96-well plate at 300 μL per well. A MultiProbe II HT (Perkin Elmer) (an automated liquid handling system) was used to facilitate plate preparation for high throughput screening, but any automated or manual pipetting system will suffice. The background fluorescence was then measured at the same wavelengths as used for ADIFAB2 using a Fluorolog-3 spectrofluorometer with an external Micromax 384 fluorescence plate reader (Jobin Yvon). In the second stage, 30 μL aliquots of the mutant probes were added to multiple wells of the plate, one for each fatty acid and one with fatty acid free BSA only, and the fluorescence intensity at each wavelength was again measured on the plate reader. After subtraction of the background fluorescence, the fluorescence ratio of each well was calculated.
The fluorescence response was quantitatively compared to ADIFAB2 to search for changes in magnitude and fatty acid profile; for example the response to one fatty acid relative to another. For each probe the ratio differences (AR) between wells with each fatty acid compared to a corresponding well with fatty acid free BSA were recorded. The relative response compared to ADIFAB2 was calculated by dividing AR for each fatty acid by that for ADIFAB2 (ΔR/ΔRAD2). Probes that show large (ΔR/ΔRAD2) and different (ΔR/ΔRAD2) for different fatty acids were chosen for larger scale production and calibration. The methods described above can be used to screen other fatty acids and/or other unbound metabolites using other plate readers. We have attained equivalent results, for example, using the Gemini EM dedicated fluorescence plate reader (Molecular Devices).
Screening was conducted by evaluating ΔR/ΔRreference as described in paragraphs 0053-0055 and Example 1 for the following fatty acids: palmitate, palmitoleate, stearate, oleate, linoleate, linolenate and arachidonate, where the reference was to ADIFAB2. The screening rate was increased by use of 384 well plates. In this case the total well volume was reduced to 100 μL and the volume of probe used per well was 10 μL. Because the identity of each mutant probe was unknown in this example, the probes of interest were organized according to phenotype. Typically, phenotypic clusters could be generated by grouping unknown probes that gave Ro and ΔR/ΔRAD2 values within 10 to 20% of each other. The clone ID specifies the second library and well position of each clone. The fluorescence ratio for zero FFAu concentration (Ro) is shown in the second column. The remaining 7 columns are the ratios of the fluorescence response (R-Ro) for each probe relative to ADIFAB2 for arachidonate, linolenate, linoleate, oleate, palmitate, palmitoleate and stearate. […]

Molecule	Ro
L1P3 D6: acrylodan-labeled rI-FABP mutein: Y14 L, L38 wt, L72 wt, Y117 wt (protein, UniProt P02693 2-132, looked up, variant Y14L, acrylodan label) Fatty acid-binding protein, …: AFDGTWKVDRNENLEKFMEKMGINVVKRKLGAHDNLKLTITQEGNKFTVKESSNFRNIDVVFELGVDFAYSLADGTELTGTWTMEGNKLVGKFKRVDNGKELIAVREISGNELIQTYTYEGVEAKRIFKKE	0.24
L1P9 G10: acrylodan-labeled rI-FABP mutein: Y14 wt, L38 I, L72 G, Y117 wt (protein, UniProt P02693 2-132, looked up, variant L38I L72G, acrylodan label) Fatty acid-binding protein, …: AFDGTWKVDRNENYEKFMEKMGINVVKRKLGAHDNLKITITQEGNKFTVKESSNFRNIDVVFELGVDFAYSGADGTELTGTWTMEGNKLVGKFKRVDNGKELIAVREISGNELIQTYTYEGVEAKRIFKKE	0.29
L1P11 F12: acrylodan-labeled rI-FABP mutein: Y14 L, L38 I, L72 wt, Y117 wt (protein, UniProt P02693 2-132, looked up, variant Y14L L38I, acrylodan label) Fatty acid-binding protein, …: AFDGTWKVDRNENLEKFMEKMGINVVKRKLGAHDNLKITITQEGNKFTVKESSNFRNIDVVFELGVDFAYSLADGTELTGTWTMEGNKLVGKFKRVDNGKELIAVREISGNELIQTYTYEGVEAKRIFKKE	0.27
L1P5 A10: acrylodan-labeled rI-FABP mutein: Y14 wt, L38 wt, L72 wt, Y117 A (protein, UniProt P02693 2-132, looked up, variant Y117A, acrylodan label, acrylodan-labeled rI-FABP mutein: Y14 wt, L38 wt, L72 wt, Y117 A) Fatty acid-binding protein, …: AFDGTWKVDRNENYEKFMEKMGINVVKRKLGAHDNLKLTITQEGNKFTVKESSNFRNIDVVFELGVDFAYSLADGTELTGTWTMEGNKLVGKFKRVDNGKELIAVREISGNELIQTATYEGVEAKRIFKKE	0.28
L1P8 D4: acrylodan-labeled rI-FABP mutein: Y14 M, L38 wt, L72 M, Y117 A (protein, UniProt P02693 2-132, looked up, variant Y14M L72M Y117A, acrylodan label, acrylodan-labeled rI-FABP mutein: Y14 M, L38 wt, L72 M, Y117 A) Fatty acid-binding protein, …: AFDGTWKVDRNENMEKFMEKMGINVVKRKLGAHDNLKLTITQEGNKFTVKESSNFRNIDVVFELGVDFAYSMADGTELTGTWTMEGNKLVGKFKRVDNGKELIAVREISGNELIQTATYEGVEAKRIFKKE	0.31
L1P14 A9: acrylodan-labeled rI-FABP mutein: Y14 L, L38 wt, L72 G, Y117 I (protein, UniProt P02693 2-132, looked up, variant Y14L L72G Y117I, acrylodan label, acrylodan-labeled rI-FABP mutein: Y14 L, L38 wt, L72 G, Y117 I) Fatty acid-binding protein, …: AFDGTWKVDRNENLEKFMEKMGINVVKRKLGAHDNLKLTITQEGNKFTVKESSNFRNIDVVFELGVDFAYSGADGTELTGTWTMEGNKLVGKFKRVDNGKELIAVREISGNELIQTITYEGVEAKRIFKKE	0.25
L1P1 F7: acrylodan-labeled rI-FABP mutein: Y14 L, L38 M, L72 wt, Y117 F (protein, UniProt P02693 2-132, looked up, variant Y14L L38M Y117F, acrylodan label, acrylodan-labeled rI-FABP mutein: Y14 L, L38 M, L72 wt, Y117 F) Fatty acid-binding protein, …: AFDGTWKVDRNENLEKFMEKMGINVVKRKLGAHDNLKMTITQEGNKFTVKESSNFRNIDVVFELGVDFAYSLADGTELTGTWTMEGNKLVGKFKRVDNGKELIAVREISGNELIQTFTYEGVEAKRIFKKE	0.22
L1P17 A8: acrylodan-labeled rI-FABP mutein: Y14 wt, L38 M, L72 G, Y117 F (protein, UniProt P02693 2-132, looked up, variant L38M L72G Y117F, acrylodan label, acrylodan-labeled rI-FABP mutein: Y14 wt, L38 M, L72 G, Y117 F) Fatty acid-binding protein, …: AFDGTWKVDRNENYEKFMEKMGINVVKRKLGAHDNLKMTITQEGNKFTVKESSNFRNIDVVFELGVDFAYSGADGTELTGTWTMEGNKLVGKFKRVDNGKELIAVREISGNELIQTFTYEGVEAKRIFKKE	0.24
L1P16 G10: acrylodan-labeled rI-FABP mutein: Y14 W, L38 wt, L72 M, Y117 A (protein, UniProt P02693 2-132, looked up, variant Y14W L72M Y117A, acrylodan label, acrylodan-labeled rI-FABP mutein: Y14 W, L38 wt, L72 M, Y117 A) Fatty acid-binding protein, …: AFDGTWKVDRNENWEKFMEKMGINVVKRKLGAHDNLKLTITQEGNKFTVKESSNFRNIDVVFELGVDFAYSMADGTELTGTWTMEGNKLVGKFKRVDNGKELIAVREISGNELIQTATYEGVEAKRIFKKE	0.34

Source: patent publication US20050244864A1, “Development and use of fluorescent probes of unbound analytes” (priority 2004, published 2005)
